The list shows a part of the results. The calls rarely recur for the same compound in another form.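 Kinases, fused to nanoluciferase, were expressed in K562 cells; luminescence was measured every 4 h from 2 to 18 h as percent of control (DMSO = 100%, positive control = 0%). A time point is decreased if signal falls significantly (2 sigma). Hits were called by the authors by a rule that is not shown; the count of time points alone does not decide it.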
Experiments:
Test in all cases: kinase-Nluc reporter destabilization hit call (1 = scored as downregulated) (binary); higher = compound decreases kinase abundance
Conditions in all cases: K562; 2-18 h
CDK7 = CDK7 (UniProt P50613)
CDK9 = CDK9 (UniProt P50750)
CHEK2 = CHEK2 (UniProt O96017)
CSF1R = CSF1R (UniProt P07333)
CSK = CSK (UniProt P41240)
CSNK1A1 = CSNK1A1 (UniProt P48729)
CSNK1D = CSNK1D (UniProt P48730)
DDR1 = DDR1 (UniProt Q08345)
DYRK1B = DYRK1B (UniProt Q9Y463)
DYRK2 = DYRK2 (UniProt Q92630)

Protein sequences, listed by entry. Tags and fused reporters are not part of them. Lines headed by an entry give the natural chain unless they say otherwise; changes in a name come on top.
UniProt P50613: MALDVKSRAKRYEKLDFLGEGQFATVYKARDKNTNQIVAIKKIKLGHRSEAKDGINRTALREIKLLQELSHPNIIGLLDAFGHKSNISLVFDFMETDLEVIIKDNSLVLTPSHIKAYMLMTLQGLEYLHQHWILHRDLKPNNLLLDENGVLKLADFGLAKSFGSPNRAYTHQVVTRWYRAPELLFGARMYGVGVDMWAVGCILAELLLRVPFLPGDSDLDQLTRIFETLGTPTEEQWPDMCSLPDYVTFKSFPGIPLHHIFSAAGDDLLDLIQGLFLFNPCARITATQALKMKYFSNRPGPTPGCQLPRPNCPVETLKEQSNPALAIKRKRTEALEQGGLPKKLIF
UniProt P50750, whole entry: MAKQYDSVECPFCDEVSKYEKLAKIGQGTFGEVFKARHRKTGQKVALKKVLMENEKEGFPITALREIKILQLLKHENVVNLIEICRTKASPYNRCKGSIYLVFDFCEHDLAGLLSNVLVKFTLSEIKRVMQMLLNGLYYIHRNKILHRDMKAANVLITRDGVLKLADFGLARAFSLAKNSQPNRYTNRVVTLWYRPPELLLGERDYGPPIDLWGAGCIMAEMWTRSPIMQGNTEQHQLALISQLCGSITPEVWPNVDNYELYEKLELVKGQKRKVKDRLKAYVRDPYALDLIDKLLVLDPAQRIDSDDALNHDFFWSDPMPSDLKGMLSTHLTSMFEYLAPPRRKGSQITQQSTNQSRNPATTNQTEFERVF
UniProt O96017, whole entry: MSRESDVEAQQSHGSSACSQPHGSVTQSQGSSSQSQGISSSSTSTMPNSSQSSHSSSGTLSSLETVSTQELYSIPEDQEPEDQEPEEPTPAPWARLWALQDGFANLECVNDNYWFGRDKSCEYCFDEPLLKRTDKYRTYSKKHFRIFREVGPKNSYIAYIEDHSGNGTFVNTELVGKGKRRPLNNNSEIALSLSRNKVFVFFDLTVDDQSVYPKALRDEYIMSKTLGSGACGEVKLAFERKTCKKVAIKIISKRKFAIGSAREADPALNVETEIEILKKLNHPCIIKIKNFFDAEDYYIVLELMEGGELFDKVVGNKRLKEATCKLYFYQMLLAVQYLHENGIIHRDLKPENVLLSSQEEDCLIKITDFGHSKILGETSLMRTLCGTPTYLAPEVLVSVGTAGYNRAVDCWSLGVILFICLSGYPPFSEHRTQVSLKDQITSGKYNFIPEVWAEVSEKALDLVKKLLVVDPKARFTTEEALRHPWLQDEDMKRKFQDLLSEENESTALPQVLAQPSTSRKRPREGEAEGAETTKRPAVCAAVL
UniProt P07333, whole entry: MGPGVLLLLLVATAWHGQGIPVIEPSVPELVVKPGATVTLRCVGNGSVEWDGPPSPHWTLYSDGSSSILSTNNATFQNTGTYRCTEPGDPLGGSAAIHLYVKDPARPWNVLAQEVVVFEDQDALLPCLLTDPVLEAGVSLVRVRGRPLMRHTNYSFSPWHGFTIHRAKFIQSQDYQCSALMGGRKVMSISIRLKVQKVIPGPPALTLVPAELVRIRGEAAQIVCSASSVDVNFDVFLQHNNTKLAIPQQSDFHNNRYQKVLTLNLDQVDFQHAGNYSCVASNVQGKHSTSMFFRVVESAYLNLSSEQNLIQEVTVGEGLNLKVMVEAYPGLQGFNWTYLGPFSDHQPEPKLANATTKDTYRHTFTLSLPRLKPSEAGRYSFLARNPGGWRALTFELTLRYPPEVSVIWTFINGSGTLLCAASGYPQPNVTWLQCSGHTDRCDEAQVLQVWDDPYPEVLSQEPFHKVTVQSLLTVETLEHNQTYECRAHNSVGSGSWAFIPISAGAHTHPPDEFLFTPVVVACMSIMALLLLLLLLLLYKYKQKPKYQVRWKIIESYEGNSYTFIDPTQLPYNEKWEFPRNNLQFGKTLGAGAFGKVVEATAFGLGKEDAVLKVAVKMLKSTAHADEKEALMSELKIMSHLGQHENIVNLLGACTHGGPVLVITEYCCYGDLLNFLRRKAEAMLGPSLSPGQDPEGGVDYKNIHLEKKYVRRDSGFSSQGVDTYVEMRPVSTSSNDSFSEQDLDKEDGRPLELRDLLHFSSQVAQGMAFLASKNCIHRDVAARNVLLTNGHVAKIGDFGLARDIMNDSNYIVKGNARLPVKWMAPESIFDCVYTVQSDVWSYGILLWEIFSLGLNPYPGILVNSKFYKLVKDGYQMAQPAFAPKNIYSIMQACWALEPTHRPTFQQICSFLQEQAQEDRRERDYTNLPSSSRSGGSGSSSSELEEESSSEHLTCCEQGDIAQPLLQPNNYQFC
UniProt P41240: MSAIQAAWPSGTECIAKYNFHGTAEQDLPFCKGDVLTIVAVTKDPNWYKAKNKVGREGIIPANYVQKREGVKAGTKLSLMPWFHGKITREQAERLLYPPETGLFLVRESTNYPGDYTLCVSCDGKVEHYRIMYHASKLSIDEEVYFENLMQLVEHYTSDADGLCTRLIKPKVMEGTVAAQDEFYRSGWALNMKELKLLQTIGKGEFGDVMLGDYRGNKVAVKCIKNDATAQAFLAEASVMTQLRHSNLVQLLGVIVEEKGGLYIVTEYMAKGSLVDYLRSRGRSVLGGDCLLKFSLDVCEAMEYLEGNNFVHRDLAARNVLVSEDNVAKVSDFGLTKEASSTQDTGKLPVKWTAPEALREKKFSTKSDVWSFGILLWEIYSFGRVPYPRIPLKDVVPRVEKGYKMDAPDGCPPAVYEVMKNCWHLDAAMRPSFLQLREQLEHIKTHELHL
UniProt P48729: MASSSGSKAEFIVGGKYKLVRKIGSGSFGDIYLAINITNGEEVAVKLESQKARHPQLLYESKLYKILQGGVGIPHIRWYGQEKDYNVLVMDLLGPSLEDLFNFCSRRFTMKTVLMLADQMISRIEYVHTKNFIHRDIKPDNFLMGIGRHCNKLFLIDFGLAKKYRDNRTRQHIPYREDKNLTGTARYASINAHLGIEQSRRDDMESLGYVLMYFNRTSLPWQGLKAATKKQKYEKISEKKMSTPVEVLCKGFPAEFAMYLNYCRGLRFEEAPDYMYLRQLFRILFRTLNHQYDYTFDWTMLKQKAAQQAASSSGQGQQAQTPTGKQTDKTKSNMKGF
UniProt P48730: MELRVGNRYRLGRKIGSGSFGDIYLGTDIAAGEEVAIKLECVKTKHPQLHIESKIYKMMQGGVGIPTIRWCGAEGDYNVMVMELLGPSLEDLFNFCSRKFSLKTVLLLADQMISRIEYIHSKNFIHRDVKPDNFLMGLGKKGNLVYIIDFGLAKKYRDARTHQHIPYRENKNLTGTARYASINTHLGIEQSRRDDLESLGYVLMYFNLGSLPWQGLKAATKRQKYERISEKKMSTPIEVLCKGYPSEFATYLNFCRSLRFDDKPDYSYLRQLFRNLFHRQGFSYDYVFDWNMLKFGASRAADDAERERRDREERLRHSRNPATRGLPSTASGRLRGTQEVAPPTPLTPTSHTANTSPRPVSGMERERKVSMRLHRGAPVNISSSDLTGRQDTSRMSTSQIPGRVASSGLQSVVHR
UniProt Q08345: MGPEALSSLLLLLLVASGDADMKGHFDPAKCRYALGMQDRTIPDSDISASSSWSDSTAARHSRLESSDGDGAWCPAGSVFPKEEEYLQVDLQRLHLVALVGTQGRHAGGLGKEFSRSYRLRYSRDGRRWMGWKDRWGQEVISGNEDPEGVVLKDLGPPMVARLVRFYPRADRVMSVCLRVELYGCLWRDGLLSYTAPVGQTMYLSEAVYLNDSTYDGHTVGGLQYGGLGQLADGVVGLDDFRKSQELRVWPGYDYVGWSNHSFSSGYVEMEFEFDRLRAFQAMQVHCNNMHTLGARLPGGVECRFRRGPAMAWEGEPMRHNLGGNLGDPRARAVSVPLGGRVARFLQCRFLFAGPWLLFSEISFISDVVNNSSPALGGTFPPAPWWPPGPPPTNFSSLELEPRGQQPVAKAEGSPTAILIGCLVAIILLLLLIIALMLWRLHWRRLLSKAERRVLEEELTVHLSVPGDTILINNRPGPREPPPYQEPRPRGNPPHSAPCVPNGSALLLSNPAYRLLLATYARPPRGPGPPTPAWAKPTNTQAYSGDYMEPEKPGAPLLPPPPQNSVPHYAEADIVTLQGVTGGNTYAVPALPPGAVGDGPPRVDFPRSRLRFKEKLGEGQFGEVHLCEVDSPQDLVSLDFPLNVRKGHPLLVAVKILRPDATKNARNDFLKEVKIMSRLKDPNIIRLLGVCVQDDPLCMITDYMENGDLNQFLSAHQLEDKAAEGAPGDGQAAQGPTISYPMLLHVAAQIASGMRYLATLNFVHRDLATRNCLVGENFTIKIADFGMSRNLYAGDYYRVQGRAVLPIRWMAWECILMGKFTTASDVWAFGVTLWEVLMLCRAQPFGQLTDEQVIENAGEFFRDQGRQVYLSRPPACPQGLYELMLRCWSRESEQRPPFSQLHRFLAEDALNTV
UniProt Q9Y463, whole entry, looked up: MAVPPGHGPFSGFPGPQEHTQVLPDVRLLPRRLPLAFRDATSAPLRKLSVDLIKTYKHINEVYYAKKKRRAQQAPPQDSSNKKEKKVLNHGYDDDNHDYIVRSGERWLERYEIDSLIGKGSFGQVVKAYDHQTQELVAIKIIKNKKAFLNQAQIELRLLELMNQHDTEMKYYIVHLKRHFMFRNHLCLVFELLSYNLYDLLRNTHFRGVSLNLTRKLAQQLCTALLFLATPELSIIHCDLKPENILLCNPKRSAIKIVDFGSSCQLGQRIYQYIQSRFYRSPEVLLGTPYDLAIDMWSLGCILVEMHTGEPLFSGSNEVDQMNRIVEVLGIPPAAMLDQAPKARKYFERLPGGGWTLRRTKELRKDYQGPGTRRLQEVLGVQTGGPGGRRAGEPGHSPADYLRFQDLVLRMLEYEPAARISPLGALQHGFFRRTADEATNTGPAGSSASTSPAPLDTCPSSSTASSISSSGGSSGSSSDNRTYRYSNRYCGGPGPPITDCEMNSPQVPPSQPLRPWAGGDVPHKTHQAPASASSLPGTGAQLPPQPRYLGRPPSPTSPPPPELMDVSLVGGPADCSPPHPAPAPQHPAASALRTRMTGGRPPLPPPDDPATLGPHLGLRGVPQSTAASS
UniProt Q92630: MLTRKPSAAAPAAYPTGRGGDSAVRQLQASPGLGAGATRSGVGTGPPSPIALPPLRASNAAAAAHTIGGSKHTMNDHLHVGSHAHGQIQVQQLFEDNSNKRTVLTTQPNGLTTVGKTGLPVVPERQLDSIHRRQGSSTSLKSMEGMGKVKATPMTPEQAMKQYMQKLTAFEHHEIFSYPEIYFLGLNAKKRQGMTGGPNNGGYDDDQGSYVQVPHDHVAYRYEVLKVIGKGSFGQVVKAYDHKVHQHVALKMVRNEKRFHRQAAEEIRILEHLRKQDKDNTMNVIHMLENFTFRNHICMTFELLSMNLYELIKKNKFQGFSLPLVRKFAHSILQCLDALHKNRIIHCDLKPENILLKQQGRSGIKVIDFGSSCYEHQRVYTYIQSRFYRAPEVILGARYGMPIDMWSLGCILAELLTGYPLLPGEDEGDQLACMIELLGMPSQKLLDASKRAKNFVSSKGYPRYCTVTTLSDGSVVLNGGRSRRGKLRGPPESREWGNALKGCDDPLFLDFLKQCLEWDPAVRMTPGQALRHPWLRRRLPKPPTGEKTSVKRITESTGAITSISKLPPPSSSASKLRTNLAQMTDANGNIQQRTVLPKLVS

Measured: kinase-Nluc reporter destabilization hit call

C[C@H]1CNC(=O)c2cnn3ccc(nc23)N[C@H](C)c2cc(F)ccc2O1 [Repotrectinib] (2.5 µM)
inactive: CDK7 = 0 | CDK9 = 0 | CHEK2 = 0 | CSF1R 0 | CSK 0 | CSNK1A1 = 0 | CSNK1D 0 | DDR1 = 0 | DYRK1B 0 | DYRK2 = 0

C=CC(=O)Nc1cc(C(=O)NC)cc(-c2n[nH]c3ccccc23)c1 (10 µM)
inactive: CDK7 = 0 | CDK9 = 0 | CHEK2 = 0 | CSF1R 0 | CSK 0 | CSNK1A1 = 0 | CSNK1D 0 | DDR1 = 0 | DYRK1B 0 | DYRK2 = 0

CS(=O)(=O)N1CCN(Cc2cn3cc(-c4cnc(N)nc4)nc(N4CCOCC4)c3n2)CC1 (10 µM)
inactive: CDK7 = 0 | CDK9 = 0 | CHEK2 = 0 | CSF1R 0 | CSK 0 | CSNK1A1 = 0 | CSNK1D 0 | DDR1 = 0 | DYRK1B 0 | DYRK2 = 0

C=CC(=O)Nc1cccc(Oc2nc(Nc3ccc(N4CCN(C)CC4)cc3)ncc2Cl)c1 (2.5 µM)
inactive: CDK7 = 0 | CDK9 = 0 | CHEK2 = 0 | CSF1R 0 | CSK 0 | CSNK1A1 = 0 | CSNK1D 0 | DDR1 = 0 | DYRK1B 0 | DYRK2 = 0

Cc1cc(Nc2ncc(Cl)c(Nc3ccccc3S(=O)(=O)C(C)C)n2)c(OC(C)C)cc1C1CCN(CC(=O)NCCNc2cccc3c2C(=O)N(C2CCC(=O)NC2=O)C3=O)CC1 (stereo not given) (10 µM)
inactive: CDK7 = 0 | CDK9 = 0 | CHEK2 = 0 | CSF1R 0 | CSK 0 | CSNK1A1 = 0 | CSNK1D 0 | DDR1 = 0 | DYRK1B 0 | DYRK2 = 0

COc1ccc(-c2cnc3c(-c4cccc5ncccc45)cnn3c2)cc1 (10 µM)
inactive: CDK7 = 0 | CDK9 = 0 | CHEK2 = 0 | CSF1R 0 | CSK 0 | CSNK1A1 = 0 | CSNK1D 0 | DDR1 = 0 | DYRK1B 0 | DYRK2 = 0

— the supplement of paper PMC12823440, “Inhibitors supercharge kinase turnover through native proteolytic circuits” (Nature, 2025)
